In publication PMC3525568, “The Natively Disordered Loop of Bcl-2 Undergoes Phosphorylation-Dependent Conformational Change and Interacts with Pin1” (PLoS ONE, 2012):

Assay: NMR structure determination of peptides
Conditions: 20 mM phosphate pH 6.5, 25°C; for NMR structure of peptide (conformation): TOCSY/ROESY, XPLOR-NIH, 10 lowest energy structures

Row | Substance | secondary structure by chemical shift index (Hα) | NMR structure of peptide (conformation)
1 | GPALSPVPPV [S87, synthetic peptide derived from the Bcl-2 loop covering S87] | no secondary structure present | not a completely extended structure
2 | PLQpTPAAPGA [pT74, phosphorylated T74 Bcl-2 loop peptide] |  | became curved
3 | QPGHpTPHPAA [pT56, phosphorylated T56 Bcl-2 loop peptide] |  | became curved
